Values of other authors in paper PMC10252203, “Tyrosinase Inhibitory Peptides from Enzyme Hydrolyzed Royal Jelly: Production, Separation, Identification and Docking Analysis” (Foods, 2023).

Amino acid sequences for entries named in this document (tags omitted). Residues count along the entry.
UniProt C7FF04, 2-392 limits assumed: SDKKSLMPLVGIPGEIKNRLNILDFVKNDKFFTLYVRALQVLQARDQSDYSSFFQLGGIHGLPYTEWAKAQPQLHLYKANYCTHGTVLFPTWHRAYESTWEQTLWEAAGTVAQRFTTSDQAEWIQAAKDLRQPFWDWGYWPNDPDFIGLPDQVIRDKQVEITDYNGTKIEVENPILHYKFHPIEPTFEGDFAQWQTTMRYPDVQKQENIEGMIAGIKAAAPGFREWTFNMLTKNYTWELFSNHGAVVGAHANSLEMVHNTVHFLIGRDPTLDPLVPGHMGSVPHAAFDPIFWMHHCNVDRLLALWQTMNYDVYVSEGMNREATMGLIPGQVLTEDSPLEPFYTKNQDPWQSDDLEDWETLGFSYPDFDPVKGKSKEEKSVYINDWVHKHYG

Biological target: TYR (Agaricus bisporus, UniProt C7FF04)
Conditions: ref [48]; cited from earlier work

For `CC(C)C[C@H](NC(=O)[C@@H](N)C(C)C)C(=O)N[C@H](C(=O)O)[C@@H](C)O`, the “IC50 (TYR inhibition), literature” value is given as 5000 µg/mL (≈ 15.1 mM).

≈ marks a conversion by molar mass, not a printed value. The match of structure and compound is tentative.
